# Measurements taken from article PMC12040169 (PLOS Biology, 2025).
# Some of the results follow.
# System: T1, CTL2-GFP (C. trachomatis L2/434/Bu, GFP-expressing)
# T1 construct: L2/434/Bu, GFP-expressing
# Design: species or system HeLa; Intracellular C. trachomatis growth in HeLa cells, bulk GFP fluorescence relative to DMSO
# Conditions: bulk GFP, single well; 28.5 h, 10 µM; inhibitor
row,Structure (SMILES),% of control remaining
1,CCOc1ccc(CC(=O)Nc2ncccc2OCCCC#N)cc1 [CBK304062],123.166%
2,O=C(O)CCC(=O)NCC1OCCc2ccccc21 (stereo not drawn) [CBK265865],130.094%
3,Cc1nnc2n1-c1ccc(Cl)cc1C(c1ccccc1)=NN2CCCC(=O)c1ccc(F)cc1 [CBK016076],146.39%
4,CCc1nc2ccc(C(=O)NC3=NN(c4ccccc4)C(=O)C3)cn2c1N(C)C(=O)COc1ccccc1 [CBK145873],108.579%
5,Cc1ccc(CN(C)C(C)C(=O)NCc2cccs2)cc1 (stereo not drawn) [CBK295663],136.064%
6,Cc1nccc(C(=O)N2CCC3(C/C=C/C[C@H]4COCC[C@H]4NC(=O)CNC3=O)CC2)n1 [CBK292072],144.769%
7,COc1ccnc(Cn2ncc(N3CCCC3)cc2=O)c1OC [CBK306672],122.866%
8,CCOc1ccc(S(=O)(=O)N2CCCN(Cc3cccc(C(F)(F)F)c3)CC2)c2cccnc12 [CBK062760],103.081%
9,O=C(O)COc1ccc(/C=C/c2nc3n(n2)C=COc2ccccc2-3)cc1 [CBK286650],113.201%
10,COc1ccccc1-c1nccnc1N1CCN(c2ccncc2)CC1 [CBK037081],122.676%
11,O=C(O)CSc1nnc2ccc(C(F)(F)F)cn12 [CBK018930],155.842%
12,CCc1cc(CNC(=O)C(c2ccc(Cl)cc2)N(C)C)on1 (stereo not drawn) [CBK281670],107.311%
13,CC1=NN(C(=O)NS(=O)(=O)c2ccccc2Cl)C(C)(C)C1 [CBK018947],107.691%
14,O=C(O)C1C2C=CC(O2)C1C(=O)NCCCc1ccccc1 (stereo not drawn) [CBK286982],124.325%
15,CC(=O)Nc1ccc(NC(=O)CSC2=C(C#N)C(c3ccco3)C3=C(CCCC3=O)N2)cc1 (stereo not drawn) [CBK264462],118.303%
16,O=C(O)CNS(=O)(=O)c1cccc2nsnc12 [CBK261136],100%
17,CN(C)CCNC(=O)c1cccc(-c2cncc(NCc3ccc4c(c3)OCO4)n2)c1 [CBK065361],105.419%
18,O=C(c1ccncc1)N1Cc2ccccc2C1 [CBK200316],141.334%
19,CN(Cc1ccccc1)C(=O)c1cc(=O)[nH]c2ccccc12 [CBK287971],142.919%
20,Cc1ccc(CNC(=O)CN(c2cccc(C(F)(F)F)c2)S(=O)(=O)c2ccc(C)cc2)cc1 [CBK263997],128.161%
21,OC(CNCc1ccc2c(c1)OCO2)CSc1ccccc1 (stereo not drawn) [CBK074684],87.8276%
22,CC(C)(C)c1csc(NC(=O)C2CCCCC2)n1 [CBK058720],100.317%
23,O=C(Nc1ccc(F)cc1)OCC1COc2ccccc2C1 (stereo not drawn) [CBK017146],85.5632%
24,CS(=O)(=O)N1CC2(CCN(Cc3ccc([N+](=O)[O-])cc3)CC2)c2ccccc21 [CBK084010],98.8361%
25,c1csc(Sc2nccnc2N2CCCC2)n1 [CBK093805],120.44%
26,Nc1c(C(=O)NCc2ccco2)c2nc3ccccc3nc2n1C1CCCC1 [CBK269323],55.0122%

row,Structure (SMILES),% of control remaining
1,CC(C)NC(=O)CC[C@@H]1CNC(=O)[C@@H]2C[C@H](NC(=O)c3ccccc3)CN12 [CBK289002],127.747%
2,COc1ccc(OCc2nc(C)cc(=O)n2CC(=O)NC(C)C)cc1 [CBK300525],105.126%
3,OCCN(CCO)Cc1ccc(Cl)c(Cl)c1 [CBK261919],100%
4,COc1ccc2nc(Nc3nc4ccc(S(C)(=O)=O)cc4s3)sc2c1 [CBK287484],154.499%
5,CCc1nccn1CCC(=O)N1CC(OCc2ccccc2F)C1 [CBK306597],121.823%
6,Cc1ccc(CS(=O)(=O)NCc2ccccc2-n2ccnc2)cc1 [CBK281462],117.089%
7,N#CC1=C(N)Oc2[nH]nc(-c3ccccc3)c2C12C(=O)N(Cc1ccccc1)c1ccccc12 (stereo not drawn) [CBK267787],100.777%
8,COc1cccc2c1OCC[C@@H]2Oc1cncc(N2CCNCC2)n1 [CBK172305G],108.335%
9,CC(NC(=O)CSc1ncc(-c2ccccc2)nn1)c1ccccc1 (stereo not drawn) [CBK267514],142.155%
10,N#CCCCN1CCC(Oc2cncc(OCc3cccnc3)n2)C1 (stereo not drawn) [CBK084466],106.315%
11,COCOc1ccc(-c2ncc(OCc3ccc4c(c3)OCO4)nc2N)cc1 [CBK145101],88.2506%
12,Nc1cc(S(=O)(=O)Nc2ccc(C(F)(F)F)cc2)ccc1N1CCCNCC1 [CBK001518C],115.561%
13,CC(NCC(O)COCc1ccc(Cl)cc1)c1ccccc1 (stereo not drawn) [CBK027972C],128.662%
14,CN1CCC(N2CCN(C(=O)c3ccccc3Nc3cccc(C(F)(F)F)c3)CC2)CC1 [CBK149097],131.168%
15,CCC(=O)Oc1ccc(C(=O)N2CCN(c3ccccc3F)CC2)cc1 [CBK307538],129.274%
16,CN(C)CCNC(=O)NC(c1ccccc1)c1ccccc1 [CBK263505C],109.204%
17,COc1cc(-c2nc3ncccc3cc2NS(C)(=O)=O)cc(OC)c1OC [CBK085697],101.755%
18,O=C(O)c1cc(NC(=O)c2ccc(NC(=O)c3ccco3)cc2)cc(C(=O)O)c1 [CBK265149],114.444%
19,CC(C)Nc1nc2ccccc2nc1OCc1ccc(C2CC2C(=O)N(C)C)cc1 (stereo not drawn) [CBK166091],76.2381%
20,COc1ccc(C(=O)N2CCN(c3cnn(C)c(=O)c3Cl)CC2)cc1 [CBK305720],113.828%
21,CC(=O)N1C[C@H]2CCCN(S(=O)(=O)c3ccc4c(c3)CCC4)[C@H]2C1 [CBK282254],140.485%
22,COc1cc(OC)cc(C(=O)N2CCC3(CC2)NC(=O)c2ccc(OC)cc2O3)c1 [CBK166328],172.504%
23,Cc1nc(C(F)(F)F)ccc1C(=O)N1CCCC1c1ccc[nH]1 (stereo not drawn) [CBK306328],63.5609%
24,Cc1ccc2c(CC(=O)NCCn3cncn3)coc2c1 [CBK283240],113.351%
25,NNC(=O)CSc1nnc(-c2ccc(Cl)cc2)n1-c1ccccc1 [CBK263010],152.177%
26,CN(C)c1ccc(C(=O)N2CC(=O)Nc3ccccc32)cc1 [CBK017839],98.4075%

row,Structure (SMILES),% of control remaining
1,CCOC(=O)C1CCN(S(=O)(=O)c2cccc3cccnc23)CC1 [CBK051242],98.9677%
2,O=C(CCS(=O)(=O)c1ccccc1)Nc1cccnc1N1CCNCC1 [CBK028262T],113.811%
3,Cc1cc(C)nc(Nc2ccc(C3CCCN(S(=O)(=O)c4ccc(F)cc4)C3)nc2)n1 (stereo not drawn) [CBK285987],102.275%
4,Fc1ccc(Sc2cccc(C(F)(F)F)n2)cc1 [CBK115240],90.5425%
5,COc1ccc(-c2cc(C(=O)NCCc3ccncc3)cnc2-c2ccc(F)cc2)cc1 [CBK037434],125.711%
6,COC(=O)C1CCCCN1S(=O)(=O)c1cccs1 (stereo not drawn) [CBK051135],146.032%
7,CC(C)(C)C(=O)N1CCC2(CC1)Nc1cccnc1-n1cccc12 [CBK284507],94.6484%
8,c1ccc(CCNc2nccnc2-c2cccs2)nc1 [CBK036776],176.139%
9,O=C(CN1CCCN(c2ncc(C(F)(F)F)cc2Cl)CC1)Nc1c(F)cccc1F [CBK074636],124.435%
10,CN1C(=O)C2(CC(=O)N(CCC3CCCCC3)C2=O)c2ccccc21 (stereo not drawn) [CBK075461],99.7877%
11,CC(c1ccc(F)c(F)c1)N(C)C(=O)Cn1cnc2c(c1=O)CCC2 (stereo not drawn) [CBK306291],104.085%
12,Cc1ccc2nc3c(cc(C(=O)NC4CCCC4)c(=N)n3Cc3ccco3)c(=O)n2c1 [CBK265242],122.648%
13,CN1CCC(N2CCN(C(=O)c3ccc4c(c3)no[n+]4[O-])CC2)CC1 [CBK149095],135.217%
14,O=c1[nH]nc(SCc2csc(COc3ccc(Cl)cc3)n2)n1C1CC1 [CBK295146],99.6143%
15,C=C(C)Cn1c(SC(C)C)nnc1-c1ccccc1OC(F)(F)F [CBK200081],96.76%
16,COC(=O)/C=C/c1cn(C2OC(CO)C(O)C2O)c(=O)[nH]c1=O (stereo not drawn) [CBK201339],111.492%
17,CN1CCN(NC(=O)COc2ccc(Br)cc2Cl)CC1 [CBK268174],113.873%
18,COc1ccc2c(c1)C1(CC(=O)N(CCOc3ccccc3)C1=O)C(=O)N2C (stereo not drawn) [CBK075168],103.788%
19,O=C(c1cc(-c2ccncc2)nc2ccc(Cl)cc12)N1CCN(Cc2ccc3c(c2)OCO3)CC1 [CBK267765],130.194%
20,CCOc1ccc2ccccc2c1CNCCSc1nnnn1C [CBK270046C],150.862%
21,CN1C(C)(C)CC(NC(=O)c2[nH]cnc2C(=O)O)CC1(C)C [CBK287102],92.0964%
22,O=C(Cn1ccnc1)Nc1nc(-c2ccccc2F)cs1 [CBK281409],73.3584%
23,O=C1COc2ccccc2C/C=C/CC2(CCN(C(=O)c3cnccn3)CC2)C(=O)NCCN1 [CBK291997],172.935%
24,CC(=O)Nc1ccc(NCc2cc(Cl)ccc2OCc2ccc(Cl)cc2Cl)cc1 [CBK078179],87.8795%
25,Cc1ccc(C(=O)NC(C)c2nnc(SCC(=O)c3ccc(Br)cc3)n2C)cc1 (stereo not drawn) [CBK266183],139.101%
26,O=C(Cc1c[nH]cn1)N1CCCC2(CCN(C(=O)c3cc(F)c(F)cc3F)C2)C1 (stereo not drawn) [CBK137072],95.1961%

# Individual results from above.
# % of control remaining, O=C(c1cc(-c2ccncc2)nc2ccc(Cl)cc12)N1CCN(Cc2ccc3c(c2)OCO3)CC1 [CBK267765] reads 130.194%
# % of control remaining, Cc1ccc(C(=O)NC(C)c2nnc(SCC(=O)c3ccc(Br)cc3)n2C)cc1 (stereo not drawn) [CBK266183] reads 139.101%
# % of control remaining, CN1C(=O)C2(CC(=O)N(CCC3CCCCC3)C2=O)c2ccccc21 (stereo not drawn) [CBK075461] reads 99.7877%
